Further values from the same series stand in other lists.
System: subjects with moderately to severely active RA who have an inadequate response to methotrexate (MTX)
Assay: Study 1 (add-on to MTX) - ACR responses (ACR20/50/70)
Format: in vivo, human
Excerpt: The terms “ACR20”, “ACR50” and “ACR70” as used herein are scores which indicate how much a patient's rheumatoid arthritis has improved according to criteria set out by the American College of Rheumatology (ACR). The ACR score represents a percentage. An ACR20 score means that a person's RA has improved by 20%, an ACR50 score means it has improved by 50%, and an ACR70 score means it has improved by 70%. Specifically, to qualify for an ACR20 score, a person with RA must have at least 20% fewer tender joints and at least 20% fewer swollen joints. In addition the patient must show a 20% improvement in at least three of the following five areas: the person's overall (global) assessment of his or her own RA, the physician's global assessment of the person's RA, the person's assessment of his or her own pain, the person's assessment of his or her own physical functioning, and the results of an erythrocyte sedimentation rate or C-reactive protein (CRP) blood test (both of which test for inflammation). ACR50 and ACR70 scores use the same criteria but require 50% and 70% improvement, respectively, (Felson et al., 1993). In the data presented herein the CRP blood test is used.
Double-blind, placebo-controlled add on study in subjects with moderately to severely active RA who have an inadequate response to methotrexate (MTX) (oral or parenteral).
595 subjects randomized to one of 6 dose regimens of Compound 1 (dosed as [Compound 1:HCl:3H2O]) (3 dose levels administered either once or twice daily) or placebo on top of each subject's stable dose of MTX.
Compound 1 (dosed as [Compound 1:HCl:3H2O]) is dosed for twelve weeks once daily (q.d.) (50 mg, 100 mg or 200 mg) or twice daily (b.i.d.) (25 mg, 50 mg or 100 mg); or placebo.
At Week 12, the subjects on placebo who have not achieved 20% improvement in swollen joint count (SJC66) and tender joint count (TJC68) are re-randomized automatically to receive Compound 1 (dosed as a [Compound 1:HCl:3H2O]) either at 100 mg q.d. or 50 mg b.i.d. doses in a blinded fashion; subjects on 50 mg q.d. who have not achieved 20% improvement in SJC66 and TJC68 will be assigned to 100 mg q.d. and subjects on 25 mg b.i.d. that have not achieved a 20% improvement in SJC66 and TJC68 will be assigned to 50 mg b.i.d. Subjects who switch treatment at week 12 are handled as if they discontinued at week 12 for the purpose of statistical analysis, whereas subjects in the other groups will maintain their randomized treatment until Week 24.
The American College of Rheumatology (ACR) composite score, which evaluates clinical improvement relative to an initial assessment, is a commonly accepted efficacy end point for clinical trials in patients with rheumatoid arthritis. The ACR score correspond to a percentage improvement in pre-set parameters, and therefore measures the evolution of the disease in a patient. For example, ACR20 denotes at least 20% improvement in tender and swollen joint counts and in three of the following end points: global assessment by the patient, global assessment by the doctor, C reactive protein (CRP), patient's pain Visual Analogue Scale and Health Assessment Questionnaire Score. The number of swollen joints, ESR and CRP correlate with radiographic progression of joint damage, whereas tender joint counts, as well as global assessments by doctors and patients, and patients' reports of pain, are sensitive to change in clinical outcomes. Physical function, as assessed by the Health Assessment Questionnaire Score, is a potent predictor of the risk of disability in rheumatoid arthritis (Felson and American College of Rheumatology Committee to Reevaluate Improvement Criteria, 2007; Felson et al., 1993).
In particular, the list of parameters used to assess ACR score can be found in the Table XCVI below and the results of the ACR responses at week 12 via either NRI or LOCF are shown in the tables below. The Hommel-corrected p-value for the pairwise comparisons of each group with placebo is shown. […]

[1] = 50 mg q.d., week 20, 24 weeks results
[2] = 50 mg q.d., week 24, 24 weeks results
[3] = 100 mg q.d., week 16, 24 weeks results
[4] = 100 mg q.d., week 20, 24 weeks results
[5] = 100 mg q.d., week 24, 24 weeks results
[6] = 200 mg q.d., week 16, 24 weeks results
[7] = 200 mg q.d., week 20, 24 weeks results
[8] = 200 mg q.d., week 24, 24 weeks results
[9] = 2 × 25 mg b.i.d., week 16, 24 weeks results
[10] = 2 × 25 mg b.i.d., week 20, 24 weeks results
[11] = 2 × 25 mg b.i.d., week 24, 24 weeks results
[12] = 2 × 50 mg b.i.d., week 16, 24 weeks results
[13] = 2 × 50 mg b.i.d., week 20, 24 weeks results
[14] = 2 × 50 mg b.i.d., week 24, 24 weeks results
[15] = 2 × 100 mg b.i.d., week 16, 24 weeks results
[16] = 2 × 100 mg b.i.d., week 20, 24 weeks results
[17] = 2 × 100 mg b.i.d., week 24, 24 weeks results

Which “ACR50 (NRI)” value [1] does the source give for `O=C(Nc1nc2cccc(-c3ccc(CN4CCS(=O)(=O)CC4)cc3)n2n1)C1CC1` [Compound 1, cyclopropanecarboxylic acid {5-[4-(1,1-dioxo-thiomorpholin-4-ylmethyl)-phenyl]-[1,2,4]triazolo[1,5-a]pyridin-2-yl}-amide] here?
The value was 39.0%.

And the “ACR70 (NRI)” value [1]?
Its value is 23.2%.

What about the “ACR50 (NRI)” value [2] of the same compound?
Its value is 35.4%.

What about the “ACR70 (NRI)” value [2] of the same compound?
The value was 22.0%.

And the “ACR50 (NRI)” value [3]?
The value was 52.9%.

And the “ACR70 (NRI)” value [3]?
The value was 24.7%.

And the “ACR50 (NRI)” value [4]?
The value was 45.9%.

What about the “ACR70 (NRI)” value [4] of the same compound?
Its value is 30.6%.

What about the “ACR50 (NRI)” value [5] of the same compound?
The value was 45.9%.

What about the “ACR70 (NRI)” value [5] of the same compound?
The value was 32.9%.

And the “ACR50 (NRI)” value [6]?
Its value is 48.8%.

And the “ACR70 (NRI)” value [6]?
Its value is 26.7%.

What about the “ACR50 (NRI)” value [7] of the same compound?
Its value is 52.3%.

And the “ACR70 (NRI)” value [7]?
The value was 23.3%.

And the “ACR50 (NRI)” value [8]?
The value was 50.0%.

And the “ACR70 (NRI)” value [8]?
Its value is 29.1%.

What about the “ACR50 (NRI)” value [9] of the same compound?
Its value is 30.2%.

And the “ACR70 (NRI)” value [9]?
The value was 10.5%.

What about the “ACR50 (NRI)” value [10] of the same compound?
Its value is 38.4%.

And the “ACR70 (NRI)” value [10]?
Its value is 10.5%.

And the “ACR50 (NRI)” value [11]?
Its value is 34.9%.

And the “ACR70 (NRI)” value [11]?
The value was 20.9%.

And the “ACR50 (NRI)” value [12]?
Its value is 31.8%.

And the “ACR70 (NRI)” value [12]?
Its value is 21.2%.

What about the “ACR50 (NRI)” value [13] of the same compound?
The value was 41.2%.

What about the “ACR70 (NRI)” value [13] of the same compound?
The value was 22.4%.

What about the “ACR50 (NRI)” value [14] of the same compound?
The value was 35.3%.

What about the “ACR70 (NRI)” value [14] of the same compound?
The value was 23.5%.

And the “ACR50 (NRI)” value [15]?
The value was 61.9%.

And the “ACR70 (NRI)” value [15]?
The value was 36.9%.

And the “ACR50 (NRI)” value [16]?
The value was 58.3%.

And the “ACR70 (NRI)” value [16]?
Its value is 36.9%.

And the “ACR50 (NRI)” value [17]?
The value was 54.8%.

And the “ACR70 (NRI)” value [17]?
Its value is 39.3%.

— US20180200257A1, “METHODS FOR THE TREATMENT OF INFLAMMATORY DISORDERS” (Galapagos NV, priority 2015, published 2018)
